Screening data

The results are deposited in PubChem (AID624032; NCATS, 2012).

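Rat S16 Schwann cells stably carrying a firefly luciferase reporter under a PMP22 intronic regulatory element; luminescence measured after 24 h of compound exposure.
Seventeen-point concentration series from about 0.00016 to 58 µM.
Potency is the AC50 from a fitted inhibition curve, the concentration giving half the maximal fitted effect; a lower value means a more potent inhibitor.
Calls follow the activity score from curve class and fit: scores 40–100 are active, 1–39 inconclusive, 0 inactive; all rows here are inconclusive.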

Values are in nM.
All entries here are filed as inconclusive.
These entries are mostly ones the record files as inconclusive; other results of the assay are not listed here.
Potencies fitted to partial, single-point or poorly fitting curves are rough.
Activity scores are not listed here.

SMILES	Potency (nM)	curve
CN1CCCC(n2nc(Cc3ccc(Cl)cc3)c3ccccc3c2=O)CC1 (centres unmarked)	40533	inhibitor, single point
COc1cc(C(=O)OCCCN2CCCN(CCCOC(=O)c3cc(OC)c(OC)c(OC)c3)CC2)cc(OC)c1OC	22793	inhibitor, partial curve, poor fit
CN(C)CCOc1ccc(/C(=C(/CCCl)c2ccccc2)c2ccccc2)cc1	40533	inhibitor, single point
CCN1/C(=C/C=C/C=C/c2sc3ccccc3[n+]2CC)Sc2ccccc21	907.4	inhibitor, full curve, poor fit
OC(O)C(Cl)(Cl)Cl	2.6	inhibitor, partial curve, poor fit
CCN(CC)CCCC(C)Nc1cc(/C=C/c2ccccc2Cl)nc2cc(Cl)ccc12 (centres unmarked)	36125	inhibitor, single point
CNc1ccc(C(=O)CC(O)CCC(C)C2OC(=O)CC(O)CC(=O)CC(O)CC(O)CC(O)CC(O)CC3(O)CC(O)C(C(=O)OC)C(CC(O[C@@H]4OC(C)C(O)C(N)C4O)/C=C/C=C/C=C/C=C/C=C/C=C/C=C/C2C)O3)cc1 (some centres unmarked)	9074	inhibitor, single point
N[C@@H](Cc1ccc(O)c(O)c1)C(=O)O	3220	inhibitor, partial curve
CC(C)(C)CC(C)(C)c1ccc(OCCO)cc1	40533	inhibitor, single point
COC(=O)[C@H]1[C@H]2C[C@@H]3c4[nH]c5cc(OC)ccc5c4CCN3C[C@H]2C[C@@H](OC(=O)c2cc(OC)c(OC)c(OC)c2)[C@@H]1OC	18105	inhibitor, partial curve
O=C(NC(=O)c1c(F)cccc1F)Nc1cc(Cl)c(OC(F)(F)C(F)C(F)(F)F)cc1Cl (centres unmarked)	32196	inhibitor, partial curve, poor fit
CC(C)N=c1cc2n(-c3ccc(Cl)cc3)c3ccccc3nc-2cc1Nc1ccc(Cl)cc1	6911	inhibitor, single point
CC(=O)O[C@H]1C(=O)[C@@]2(C)[C@H]([C@H](OC(=O)c3ccccc3)[C@]3(O)C[C@H](OC(=O)[C@H](O)[C@@H](NC(=O)c4ccccc4)c4ccccc4)C(C)=C1C3(C)C)[C@]1(OC(C)=O)CO[C@@H]1C[C@@H]2O	510.3	inhibitor, full curve, poor fit
[O]=[Cr](=[O])([OH])[O][Cr](=[O])(=[O])[OH]	25574	inhibitor, partial curve, poor fit
COc1ccc(Cc2nccc3cc(OC)c(OC)cc23)cc1OC	1547	inhibitor, full curve, poor fit
CCC(=O)c1ccc2c(c1)N(CCCN(C)C)c1ccccc1S2	14381	inhibitor, partial curve, poor fit
N#CC(C#N)=Cc1ccc(O)c(O)c1	36125	inhibitor, single point
COc1cc(O)c(C(=O)c2ccccc2)cc1S(=O)(=O)O	40533	inhibitor, single point
CCCCCCC(=O)CCCCCC/C=C/C[C@@H](O)[C@H](O)[C@@](N)(CO)C(=O)O	2.3	inhibitor, full curve, poor fit
CCOc1cc(-c2nccc3cc(OC)c(OC)cc23)cc(OCC)c1OCC	20314	inhibitor, partial curve
CN(C)CC/C=C1\c2ccccc2Sc2ccc(Cl)cc21	8087	inhibitor, partial curve, poor fit
CCC(=O)O[C@]1(C(=O)CCl)[C@@H](C)CC2C3C[C@H](F)C4=CC(=O)C=CC4(C)[C@@]3(F)C(O)CC21C (some centres unmarked)	36125	inhibitor, single point
CC1=C[C@@H](O)CC(C)(C)[C@@H]1/C=C/C(C)=C/C=C/C(C)=C/C=C/C=C(C)/C=C/C=C(C)/C=C/C1=C(C)C[C@H](O)CC1(C)C	40533	inhibitor, partial curve, poor fit
CC1=C(C)C(=O)C(CCCCC#CCCCC#CCO)=C(C)C1=O	14381	inhibitor, full curve, poor fit
Nc1ncn(C2C[C@H](O)[C@@H](CO)O2)c(=O)n1 (some centres unmarked)	16136	inhibitor, single point
Cc1nc2sccn2c(=O)c1CCN1CCC(=C(c2ccc(F)cc2)c2ccc(F)cc2)CC1	45479	inhibitor, partial curve, poor fit
C[C@]12CCC3C(CCC4=C(Cl)C(=O)CC[C@@]43C)C1CCC2O (some centres unmarked)	25574	inhibitor, partial curve
O=[N+]([O-])C(Br)(CO)CO	40533	inhibitor, single point
CN(C)C(=O)C(CCN1CCC(O)(c2ccc(Cl)cc2)CC1)(c1ccccc1)c1ccccc1	14381	inhibitor, partial curve
COC1=C(OC)C(=O)C(CCCCCCCCCCO)=C(C)C1=O	18105	inhibitor, partial curve

2 of the entries, repeated:

* Cc1nc2sccn2c(=O)c1CCN1CCC(=C(c2ccc(F)cc2)c2ccc(F)cc2)CC1 : Potency 45479 nM (inhibitor, partial curve, poor fit)
* N#CC(C#N)=Cc1ccc(O)c(O)c1 : Potency 36125 nM (inhibitor, single point)